In paper PMC7019889:
No constants are given. Whether binding was seen depends on the method and setting. Binding seen in cells or lysates may run through a third protein. Some results given as binding are weak or reduced against the parent protein; the word gives no strength. For part of these data: Sequences can lack the tags named with a protein.

Experiments:
[1] = molecular target: T1, Flag-tagged MYBBP1A (160 kDa myb-binding protein, Myb-binding protein 1α) (UniProt Q9BQG0); assay: co-IP; SH-SY5Y cells co-transfected with Flag-MYBBP1A and HA-USP29; lysis in RIPA buffer, lysate diluted 1:1 with PBS; immunoprecipitation with the indicated antibodies and protein A/G-agarose overnight at 4 °C, in both directions; immunoblot
T1 sequence: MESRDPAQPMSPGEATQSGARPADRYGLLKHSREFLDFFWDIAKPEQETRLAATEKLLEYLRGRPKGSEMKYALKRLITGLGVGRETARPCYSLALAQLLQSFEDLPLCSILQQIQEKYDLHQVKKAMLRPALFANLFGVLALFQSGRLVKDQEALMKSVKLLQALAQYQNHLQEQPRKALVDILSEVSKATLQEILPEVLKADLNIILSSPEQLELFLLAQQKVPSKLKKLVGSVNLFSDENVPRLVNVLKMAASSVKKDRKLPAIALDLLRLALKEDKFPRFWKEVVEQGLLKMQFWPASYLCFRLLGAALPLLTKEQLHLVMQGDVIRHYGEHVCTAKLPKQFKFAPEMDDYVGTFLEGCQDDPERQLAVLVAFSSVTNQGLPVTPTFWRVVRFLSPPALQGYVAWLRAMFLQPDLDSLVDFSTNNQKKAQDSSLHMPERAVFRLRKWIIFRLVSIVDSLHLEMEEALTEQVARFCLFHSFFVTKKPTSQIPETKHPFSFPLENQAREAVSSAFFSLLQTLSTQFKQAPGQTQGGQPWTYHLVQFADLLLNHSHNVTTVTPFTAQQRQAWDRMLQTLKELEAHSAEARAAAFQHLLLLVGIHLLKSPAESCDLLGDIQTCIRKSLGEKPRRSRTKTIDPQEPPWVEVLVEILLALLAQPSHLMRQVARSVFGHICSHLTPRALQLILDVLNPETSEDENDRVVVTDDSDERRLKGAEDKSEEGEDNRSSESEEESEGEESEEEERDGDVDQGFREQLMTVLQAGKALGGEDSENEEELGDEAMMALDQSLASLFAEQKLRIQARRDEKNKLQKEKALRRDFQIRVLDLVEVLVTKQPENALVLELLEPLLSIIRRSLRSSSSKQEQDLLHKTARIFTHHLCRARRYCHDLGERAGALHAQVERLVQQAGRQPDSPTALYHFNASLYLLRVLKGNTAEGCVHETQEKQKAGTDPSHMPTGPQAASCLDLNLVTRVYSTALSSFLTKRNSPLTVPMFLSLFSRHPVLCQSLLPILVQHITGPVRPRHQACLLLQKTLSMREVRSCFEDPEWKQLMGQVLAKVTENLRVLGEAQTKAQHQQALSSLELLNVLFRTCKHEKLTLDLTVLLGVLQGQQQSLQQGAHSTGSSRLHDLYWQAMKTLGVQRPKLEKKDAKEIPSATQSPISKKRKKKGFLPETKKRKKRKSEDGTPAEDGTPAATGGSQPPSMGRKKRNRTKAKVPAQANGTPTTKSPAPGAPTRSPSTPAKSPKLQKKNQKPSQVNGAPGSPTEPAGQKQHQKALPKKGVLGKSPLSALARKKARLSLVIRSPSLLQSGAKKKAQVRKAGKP

[2] = molecular target: T2, HA-tagged USP29 (ubiquitin-specific peptidase 29) (UniProt Q9HBJ7); assay: as above
T2 sequence: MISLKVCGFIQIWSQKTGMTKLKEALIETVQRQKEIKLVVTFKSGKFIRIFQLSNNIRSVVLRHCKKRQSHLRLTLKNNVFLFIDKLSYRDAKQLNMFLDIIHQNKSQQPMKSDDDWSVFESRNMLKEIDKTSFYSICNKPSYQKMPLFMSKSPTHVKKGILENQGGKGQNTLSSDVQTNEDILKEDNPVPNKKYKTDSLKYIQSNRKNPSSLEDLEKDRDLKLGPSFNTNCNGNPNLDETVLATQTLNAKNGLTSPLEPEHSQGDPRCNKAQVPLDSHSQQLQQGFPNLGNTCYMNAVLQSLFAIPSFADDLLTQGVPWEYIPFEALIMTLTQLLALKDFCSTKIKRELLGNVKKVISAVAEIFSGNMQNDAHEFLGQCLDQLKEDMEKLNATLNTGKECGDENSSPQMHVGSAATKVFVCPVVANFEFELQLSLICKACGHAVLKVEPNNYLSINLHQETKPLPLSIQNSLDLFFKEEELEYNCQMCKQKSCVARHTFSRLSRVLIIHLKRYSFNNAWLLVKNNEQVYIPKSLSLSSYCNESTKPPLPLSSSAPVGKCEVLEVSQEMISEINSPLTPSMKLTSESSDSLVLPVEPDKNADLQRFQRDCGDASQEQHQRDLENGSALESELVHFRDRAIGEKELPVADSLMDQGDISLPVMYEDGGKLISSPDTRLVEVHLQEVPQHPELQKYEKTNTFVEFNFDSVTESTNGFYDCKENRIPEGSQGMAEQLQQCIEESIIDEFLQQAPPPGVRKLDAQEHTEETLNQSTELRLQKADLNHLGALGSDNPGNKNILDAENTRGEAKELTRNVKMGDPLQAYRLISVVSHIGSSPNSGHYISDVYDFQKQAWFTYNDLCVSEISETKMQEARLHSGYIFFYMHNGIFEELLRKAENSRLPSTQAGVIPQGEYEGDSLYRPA

[3] = molecular target: T3, endogenous MYBBP1A in SH-SY5Y cells (human (endogenous in SH-SY5Y)) (UniProt Q9BQG0); assay: co-IP; endogenous proteins in SH-SY5Y lysate (RIPA buffer); endogenous MYBBP1A immunoprecipitated, rabbit IgG as negative control; immunoblot
T3 sequence: T1 sequence

B1: HA-tagged USP29 (ubiquitin-specific peptidase 29) (enzyme, UniProt Q9HBJ7 1-922)
chain: T2 sequence
Question: How did the binding [1] turn out when B1 was run?
Answer: Its binding is “binds”.

B2: Flag-tagged MYBBP1A (160 kDa myb-binding protein, Myb-binding protein 1α) (protein, UniProt Q9BQG0 1-1328)
chain: T1 sequence
Question: Which binding [2] does the source give for B2 here?
Answer: Its binding is “binds”.

B3: endogenous USP29 in SH-SY5Y cells (enzyme, UniProt Q9HBJ7 1-922)
chain: T2 sequence
Question: B3 was tested. Which binding [3] did it give?
Answer: Its binding is “binds”.
